Compound in the experiment: Nc1nc2c(ncn2[C@@H]2O[C@H](COP(=O)(O)OP(=O)(O)OP(=O)(O)O)[C@@H](O)[C@H]2O)c(=O)[nH]1 [guanosine triphosphate]
As to the kind of experiment: NP40-soluble protein abundance relative to vehicle (solubility fold change) (ratio); higher = more soluble protein in presence of GTP. The procedure:
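Solubility proteome profiling in Jurkat crude lysate. Lysate was treated with Mg-GTP (0.1-10 mM) for 10 min at room temperature and 3 min at 37 °C, then solubilised with 0.8% NP40 and benzonase, followed by ultracentrifugation. Proteins were quantified by TMT10 LC-MS/MS; the value is the NP40-soluble abundance relative to the NP40-processed vehicle, from 3 independent experiments.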

Protein sequences, listed by entry. Tags and fused reporters are not part of them. Lines headed by an entry give the natural chain unless they say otherwise; changes in a name come on top.
UniProt Q96AE4: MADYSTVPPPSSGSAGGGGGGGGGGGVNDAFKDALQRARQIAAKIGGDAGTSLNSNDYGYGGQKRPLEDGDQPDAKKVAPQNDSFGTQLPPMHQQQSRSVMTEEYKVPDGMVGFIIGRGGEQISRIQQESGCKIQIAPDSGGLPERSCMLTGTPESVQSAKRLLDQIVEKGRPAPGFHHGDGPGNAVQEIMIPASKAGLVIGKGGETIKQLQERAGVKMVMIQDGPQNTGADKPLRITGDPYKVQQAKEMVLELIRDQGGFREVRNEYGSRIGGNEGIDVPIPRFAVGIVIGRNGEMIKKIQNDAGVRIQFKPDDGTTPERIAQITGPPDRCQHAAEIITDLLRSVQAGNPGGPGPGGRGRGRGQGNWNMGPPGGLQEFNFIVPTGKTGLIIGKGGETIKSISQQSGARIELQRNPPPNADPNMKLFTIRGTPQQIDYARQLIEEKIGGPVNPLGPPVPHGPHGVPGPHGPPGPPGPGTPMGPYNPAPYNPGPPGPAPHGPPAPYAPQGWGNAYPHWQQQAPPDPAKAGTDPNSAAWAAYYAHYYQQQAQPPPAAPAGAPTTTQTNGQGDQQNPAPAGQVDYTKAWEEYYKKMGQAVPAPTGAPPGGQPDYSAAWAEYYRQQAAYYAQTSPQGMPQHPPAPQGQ
UniProt Q969H8: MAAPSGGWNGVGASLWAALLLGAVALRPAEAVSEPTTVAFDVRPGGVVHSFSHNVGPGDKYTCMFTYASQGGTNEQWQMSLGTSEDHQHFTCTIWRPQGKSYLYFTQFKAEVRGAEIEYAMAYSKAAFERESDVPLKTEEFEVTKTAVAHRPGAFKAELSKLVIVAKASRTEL
UniProt Q96BX8: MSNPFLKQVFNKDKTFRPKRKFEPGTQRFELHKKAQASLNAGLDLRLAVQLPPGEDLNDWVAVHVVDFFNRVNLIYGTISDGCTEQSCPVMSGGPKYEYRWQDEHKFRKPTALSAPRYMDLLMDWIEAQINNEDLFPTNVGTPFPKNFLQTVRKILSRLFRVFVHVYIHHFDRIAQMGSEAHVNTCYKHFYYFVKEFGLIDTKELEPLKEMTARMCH
UniProt Q8WUD1: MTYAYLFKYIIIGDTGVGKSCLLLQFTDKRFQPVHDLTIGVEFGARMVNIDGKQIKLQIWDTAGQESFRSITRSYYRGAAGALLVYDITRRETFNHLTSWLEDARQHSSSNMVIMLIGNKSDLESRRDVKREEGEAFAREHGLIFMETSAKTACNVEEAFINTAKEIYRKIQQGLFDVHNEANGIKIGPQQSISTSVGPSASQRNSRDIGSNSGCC

± gives the standard deviation of the averaged measurements. This is one part of the list.

Regarding UniProt Q96AE4 and related entries, the NP40-soluble protein abundance stood at 0.895 ± 0.039 (concentration: 0.1mM); 0.878 ± 0.075 (concentration: 0.5mM); 0.93 ± 0.065 (concentration: 1mM); 0.886 ± 0.1 (concentration: 2mM); 0.877 ± 0.073 (concentration: 4mM); 0.89 ± 0.086 (concentration: 6mM). In addition, the NP40-soluble protein abundance amounted to 0.869 ± 0.08 (concentration: 8mM) and 0.903 ± 0.07 (concentration: 10mM).

RTF1 (UniProt Q92541): the NP40-soluble protein abundance runs as follows: (concentration: 0.1mM) 0.98 ± 0.054; (concentration: 0.5mM) 0.975 ± 0.062; (concentration: 1mM) 0.943 ± 0.062; (concentration: 2mM) 0.916 ± 0.085; (concentration: 4mM) 0.915 ± 0.08; (concentration: 6mM) 0.947 ± 0.081. For the same target, the NP40-soluble protein abundance runs as follows: (concentration: 8mM) 0.949 ± 0.057; (concentration: 10mM) 0.93 ± 0.084.

Turning to UniProt Q969H8, the NP40-soluble protein abundance is, setting by setting: (concentration: 0.1mM) 0.971 ± 0.023; (concentration: 0.5mM) 0.949 ± 0.034; (concentration: 1mM) 0.884 ± 0.026; (concentration: 2mM) 0.85 ± 0.019; (concentration: 4mM) 0.834 ± 0.05; (concentration: 6mM) 0.853 ± 0.057. Besides, the NP40-soluble protein abundance is, setting by setting: (concentration: 8mM) 0.8 ± 0.046; (concentration: 10mM) 0.764 ± 0.085.

Take UniProt Q96BX8: the NP40-soluble protein abundance reads like this: (concentration: 0.1mM) 1.05 ± 0.06; (concentration: 0.5mM) 0.957 ± 0.094; (concentration: 1mM) 0.913 ± 0.051; (concentration: 2mM) 0.917 ± 0.083; (concentration: 4mM) 0.913 ± 0.059; (concentration: 6mM) 0.886 ± 0.052. Also, the NP40-soluble protein abundance is, setting by setting: (concentration: 8mM) 0.864 ± 0.1; (concentration: 10mM) 0.828 ± 0.14.

In the case of RAB2B (UniProt Q8WUD1), the NP40-soluble protein abundance was determined as 1 ± 0.085 (concentration: 0.1mM); 0.986 ± 0.064 (concentration: 0.5mM); 0.972 ± 0.1 (concentration: 1mM); 0.925 ± 0.14 (concentration: 2mM); 1 ± 0.094 (concentration: 4mM); 0.896 ± 0.056 (concentration: 6mM). The NP40-soluble protein abundance by setting is: (concentration: 8mM) 0.946 ± 0.12; (concentration: 10mM) 0.927 ± 0.1.

The values are drawn from the supplement of paper PMC6411743.
